From publication PMC5996148
The other results are listed elsewhere or left out.

Assays:
Assay in all cases: protein microarray (ProtoArray v5.0), streptavidin-Alexa Fluor 647
Conditions in all cases: 3'-biotin; 20 mM Tris (pH 7.5), 5 mM MgCl2, 100 mM KCl, 0.1% Tween-20, A/T-rich and random oligonucleotide blockers; temperature not stated; high values mean tight binding
[1] = system: TK1 (human)
[2] = system: TLE3 (human)
[3] = system: TMEM103 (human)
[4] = system: TMEM129 (human)
[5] = system: TMEM138 (human)
[6] = system: TMEM149 (human)
[7] = system: TMEM159 (human)
[8] = system: TMEM17 (human)
[9] = system: TMEM182 (human)
[10] = system: TMEM185A (human)
[11] = system: TMEM186 (human)
[12] = system: TMEM19 (human)
[13] = system: TMEM25 (human)
[14] = system: TMEM27 (human)
[15] = system: TMEM41A (human)
[16] = system: TMEM68 (human)
[17] = system: TMEM98 (human)
[18] = system: TNFSF15 (human)
[19] = system: TNIP1 (human)
[20] = system: TOM1-like protein 2 (human)

With “GGTGACAGGGGTATGGGGAGGGG [G4-2 biotinylated (Ct1)]” the binding signal [1] was -0.389 z-score, the binding signal [2] was -0.386 z-score and the binding signal [3] was -0.386 z-score. For the same sequence, the binding signal [4] was -0.379 z-score, the binding signal [5] was -0.39 z-score and the binding signal [6] was -0.379 z-score. It also gave a binding signal [7] of -0.388 z-score, a binding signal [8] of -0.378 z-score and a binding signal [9] of -0.372 z-score. For the same sequence, the binding signal [10] was -0.384 z-score, the binding signal [11] was -0.374 z-score and the binding signal [12] was -0.385 z-score. For the same sequence, the binding signal [13] was -0.387 z-score, the binding signal [14] was -0.385 z-score and the binding signal [15] was -0.373 z-score. The binding signal [16] was -0.372 z-score, the binding signal [17] was -0.37 z-score and the binding signal [18] was -0.36 z-score. The binding signal [19] was -0.372 z-score and the binding signal [20] was -0.401 z-score.
